# Results from PubChem BioAssay AID1347075 (National Center for Advancing Translational Sciences (NCATS), 2019).
# The whole screen tested about 400,000 compounds, of which about 5,500 (1.4%) were called active. Inconclusive means that the source gave no clear call. Such entries were picked first, then a sample of the others. Calls come from the whole dose curve; as a rule, active = well fitted cell-killing curve with a large enough effect; inconclusive = small, poorly fitted or top-dose-only effect, or effect the other way; inactive = flat fitted curve, though single readings scatter. Potencies of inconclusive entries are doubtful fits and often do not repeat.
# Assay: qHTS assay for MDR1-selective chemotherapeutics: Primary screen using the parental adenocarcinoma cell KB-3-1; note: nearly all actives have a fitted effect of over 60% in size
# Conditions: KB-3-1 viability, CellTiter-Glo ATP luminescence, 72 h; activity change, negative = cytotoxic: at 46.1 µM (top of the series)
# Summary of the method: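 Cytotoxicity measured as CellTiter-Glo luminescence after 72 h at 37 C. Compound titrations were pinned onto drug-naive KB-3-1 parental adenocarcinoma cells grown in DMEM with 10% FBS, and normalized data fitted to concentration-response curves.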
# % is set by controls: 0 for no effect and ±100 for the full control effect; potency is the fitted concentration of half-maximal effect.
Compound,"activity change, negative = cytotoxic",Potency
COc1ccccc1C(CNC(=O)c1ccc(OCc2c(C)noc2C)cc1)N1CCCC1 (configuration not stated),inconclusive: -33.4%,–
O=c1c2ccccc2n(Cc2cccc(Cl)c2)c(=O)n1Cc1ccccc1,–,inactive
COc1cccc(-c2nn(-c3ccc(C)cc3)cc2C(=O)N2CCc3cc(OC)c(OC)cc3C2)c1,–,active: 18.4 µM
CCCCCCn1ccc(=N)cc1,–,active: 8.2 µM
CCc1ccc(-c2nc(CS(=O)CC(=O)NCCCN3CCOCC3)c(C)o2)cc1 (configuration not stated),inconclusive: -49.6%,–
COc1ccc(-c2ccc(-c3cc(=O)oc4cc(OC)c(OC)c(OC)c34)cc2)cc1,–,inactive
COc1ccccc1OCCOc1ccccc1/C=N/n1cnnc1,–,"inconclusive: 25.9 µM [cytotoxic, single point]"
O=C(c1ccc(Cl)cc1)N1CCCCC(Cl)C1=O (configuration not stated),–,inactive
O=C(COS(=O)c1ccccc1)Nc1cc(Cl)ccc1N1CCOCC1 (configuration not stated),–,inactive
Cc1ccc(NC(=O)C(NC2CCCc3ccccc32)c2ccccc2)cc1Cl (configuration not stated),–,"inconclusive: 18.4 µM [cytotoxic, single point]"
Cc1ccc(-n2nc3c(=O)n(C(C)C(=O)NCc4ccc5c(c4)OCO5)nc(C)c3c2C)cc1 (configuration not stated),–,"inconclusive: 8.2 µM [cytotoxic, partial curve, poor fit]"
CCOc1ccc(-c2nc(C#N)c(N3CCCCCC3)o2)cc1,–,inactive
CCC(=O)Nc1sc2c(c1C(=O)Nc1ccc(Br)cc1)CCCCC2,–,inactive
COc1ccccc1-c1nc(SCC(=O)c2ccc(Cl)cc2)n[nH]1,inconclusive: -33%,–
CC1=CC(=O)C=CC1=Nc1ccc(N(C)C)cc1,–,"inconclusive: 18.4 µM [cytotoxic, single point]"
COc1ccccc1N1C(=S)N=C(Nc2c(C)cccc2C)C12CCCC2,–,inactive
Cn1cc(S(=O)(=O)N2CCCC2)cc1C(=O)NCc1ccc(F)cc1,–,"inconclusive: 29.1 µM [rising, partial curve, poor fit]"
CC(C)Oc1cccc(C(=O)Nc2ccc3oc(-c4ccccc4)nc3c2)c1,–,"inconclusive: 29.1 µM [cytotoxic, single point]"
CC(C)CCSc1nc2[nH]ncc2c(=O)[nH]1,–,"inconclusive: 3.26 µM [rising, full curve]"
O=C(Cn1cc(S(=O)(=O)Cc2ccccc2Cl)c2ccccc21)Nc1cccc(C(F)(F)F)c1,–,"inconclusive: 23.1 µM [cytotoxic, single point]"
COC(=O)c1cc(C)nc(Nc2nc(C(N)Cc3ccc(Cl)cc3)cs2)n1 (configuration not stated),–,"inconclusive: 29.1 µM [cytotoxic, single point]"
COc1cccc(NC(=O)Nc2ccc3c(c2)nc(C)n3C)c1,–,inactive
CC(C)(C)c1ccc(OCCC(=O)Nc2cccc(S(=O)(=O)NC3=NCCCCC3)c2)cc1,–,"inconclusive: 20.6 µM [cytotoxic, single point]"
O=C1CN(c2ccc(F)cc2)C(=S)N1c1ccccc1,–,"inconclusive: 18.4 µM [cytotoxic, single point]"

Compound,"activity change, negative = cytotoxic",Potency
COc1ccc2c(c1)[C@H]1[C@H](CO2)[C@H](c2ccccc2)[C@]2(C)C(=O)Nc3ccccc3C(=O)N12,–,"inconclusive: 29.1 µM [cytotoxic, single point]"
CCCc1ccc(C(O)c2ncc(-c3ccccc3F)[nH]2)cc1 (configuration not stated),–,inactive
Cc1nn(CCC(=O)NNC(=S)Nc2ccc(Cl)cc2)c(C)c1[N+](=O)[O-],–,inactive
CCCCC(=O)NC(c1ccc(OC)cc1)c1ccc2cccnc2c1O (configuration not stated),–,"inconclusive: 5.8 µM [cytotoxic, partial curve]"
CCc1c(-c2ccc(F)cc2)ncn1Cc1cccc(-c2ccccc2)c1,–,"inconclusive: 20.6 µM [cytotoxic, single point]"
Cc1ccc(O)c([C@H](CCN(C(C)C)C(C)C)c2ccccc2)c1,–,inactive
Cc1c(C(=O)OCC(=O)Nc2ccc(S(N)(=O)=O)cc2)oc2c1ccc1ccccc12,–,"inconclusive: 20.6 µM [cytotoxic, single point]"
C[C@H]1CN([C@@H](C)CO)S(=O)(=O)c2ccc(C3=CCCC3)cc2O[C@@H]1CN(C)C(=O)C1CCCCC1,–,"inconclusive: 1.3 µM [cytotoxic, full curve, poor fit]"
CC(C)(C)NC(=O)NC(=O)CN1CCCCCCC1,inconclusive: -48.4%,–
Cc1cccc(C)c1OCC(=O)Nc1ccc(NC(=O)c2ccco2)cc1,–,inactive
CN(C)/N=C/c1cc(Cl)cc([N+](=O)[O-])c1O,–,"inconclusive: 29.1 µM [cytotoxic, single point]"
Fc1ccc(NC(=S)Nc2ccc(F)c(Cl)c2)cc1Cl,–,"inconclusive: 29.1 µM [cytotoxic, single point]"
COc1ccc(NC(=O)C(NS(=O)(=O)c2cccc3nsnc23)c2ccccc2)cc1 (configuration not stated),–,inactive
CCC(=O)Nc1nnc(S(=O)(=O)N2CCCCCC2)s1,–,"inconclusive: 18.4 µM [rising, single point]"
N#Cc1nc(-c2ccc(Cl)cc2)oc1NCCc1ccccn1,–,inactive
CCOC(=O)c1cc2c(=O)n3ccccc3nc2n(Cc2ccco2)c1=NC(=O)c1ccc(OC)cc1OC,–,"inconclusive: 8.2 µM [rising, partial curve, poor fit]"
CSc1cccc(NC(=O)/C=C/c2ccc(Cl)cc2)c1,–,"inconclusive: 29.1 µM [cytotoxic, single point]"
O=C(Nc1ccc(S(=O)(=O)N2CCc3ccccc3C2)cc1)c1ccccc1,–,active: 18.4 µM
CCOc1ccc(N(CC(=O)Nc2ccc(C)cc2)S(=O)(=O)c2c(C)noc2C)cc1,–,"inconclusive: 29.1 µM [cytotoxic, single point]"
N#C/C(=C\c1cc(Cl)ccc1O)C(=O)NC1CCCCC1,–,"inconclusive: 29.1 µM [rising, single point]"
C#C[C@]1(OC(C)=O)CCC2C3CCC4=CC(=O)CC[C@@H]4C3CC[C@@]21C (some centres not stated),–,"inconclusive: 29.1 µM [cytotoxic, single point]"
N#CC1=C(N)Oc2n[nH]c(-c3ccccn3)c2C1c1c(F)cccc1Cl (configuration not stated),–,inactive
CCCSc1ccc(-c2nn(-c3ccccc3)cc2/C=C(/C#N)C(=O)N2CCOCC2)cc1,–,"inconclusive: 23.1 µM [cytotoxic, single point]"

# Three compounds already listed, sorted by molecular weight, low to high:
Compound,"activity change, negative = cytotoxic",Potency
C#C[C@]1(OC(C)=O)CCC2C3CCC4=CC(=O)CC[C@@H]4C3CC[C@@]21C (some centres not stated),–,"inconclusive: 29.1 µM [cytotoxic, single point]"
N#CC1=C(N)Oc2n[nH]c(-c3ccccn3)c2C1c1c(F)cccc1Cl (configuration not stated),–,inactive
Cc1nn(CCC(=O)NNC(=S)Nc2ccc(Cl)cc2)c(C)c1[N+](=O)[O-],–,inactive
